No constants are given. Whether binding was seen depends on the method and setting. In cells and extracts the contact can be indirect. Some binding calls cover weakened binding; strength is not graded here.
Biological target: p16 (human (endogenous in SGC7901)) (UniProt P42771)
Test: co-IP; SGC7901 whole-cell lysate in RIPA buffer; anti-p16 antibody overnight at 4 °C, Protein G Plus/Protein A agarose 4 h at 4 °C; immunoblot for AE1, AE2 and p16; all proteins endogenous

Amino acid sequences for entries named in this document (tags omitted).
UniProt P42771: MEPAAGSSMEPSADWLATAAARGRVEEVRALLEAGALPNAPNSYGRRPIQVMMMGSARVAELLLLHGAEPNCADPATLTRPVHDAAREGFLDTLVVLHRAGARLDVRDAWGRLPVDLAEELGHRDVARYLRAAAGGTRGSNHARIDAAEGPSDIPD
UniProt P02730: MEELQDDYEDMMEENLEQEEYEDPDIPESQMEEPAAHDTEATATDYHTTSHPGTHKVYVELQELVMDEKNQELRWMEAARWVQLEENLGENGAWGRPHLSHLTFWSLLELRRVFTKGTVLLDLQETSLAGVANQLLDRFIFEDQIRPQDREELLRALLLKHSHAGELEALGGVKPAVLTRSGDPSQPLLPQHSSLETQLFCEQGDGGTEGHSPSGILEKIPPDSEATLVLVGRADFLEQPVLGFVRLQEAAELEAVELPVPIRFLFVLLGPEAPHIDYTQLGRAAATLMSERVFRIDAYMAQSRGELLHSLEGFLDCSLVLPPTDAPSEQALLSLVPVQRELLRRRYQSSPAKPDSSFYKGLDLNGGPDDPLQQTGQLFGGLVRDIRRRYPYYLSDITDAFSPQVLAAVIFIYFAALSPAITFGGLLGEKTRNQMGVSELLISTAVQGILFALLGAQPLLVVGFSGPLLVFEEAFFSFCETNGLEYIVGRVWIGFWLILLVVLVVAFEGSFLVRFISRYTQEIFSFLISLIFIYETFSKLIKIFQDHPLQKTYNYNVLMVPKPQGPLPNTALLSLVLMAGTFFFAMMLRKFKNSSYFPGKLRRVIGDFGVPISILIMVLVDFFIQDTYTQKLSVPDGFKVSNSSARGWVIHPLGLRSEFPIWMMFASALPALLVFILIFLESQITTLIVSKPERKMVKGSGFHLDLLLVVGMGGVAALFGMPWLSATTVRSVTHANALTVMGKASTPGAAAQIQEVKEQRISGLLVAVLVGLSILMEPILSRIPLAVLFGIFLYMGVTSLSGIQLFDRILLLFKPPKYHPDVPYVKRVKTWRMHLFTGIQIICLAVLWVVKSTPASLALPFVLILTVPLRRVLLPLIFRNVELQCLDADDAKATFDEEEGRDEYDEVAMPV

Row | binding | Molecule
1 | binds | Anion exchanger 1 (from UniProt P02730 1-911)
2 | binds | Anion exchanger 2 (protein, UniProt P04920 1-1241) MSSAPRRPAKGADSFCTPEPESLGPGTPGFPEQEEDELHRTLGVERFEEILQEAGSRGGEEPGRSYGEEDFEYHRQSSHHIHHPLSTHLPPDARRRKTPQGPGRKPRRRPGASPTGETPTIEEGEEDEDEASEAEGARALTQPSPVSTPSSVQFFLQEDDSADRKAERTSPSSPAPLPHQEATPRASKGAQAGTQVEEAEAEAVAVASGTAGGDDGGASGRPLPKAQPGHRSYNLQERRRIGSMTGAEQALLPRVPTDEIEAQTLATADLDLMKSHRFEDVPGVRRHLVRKNAKGSTQSGREGREPGPTPRARPRAPHKPHEVFVELNELLLDKNQEPQWRETARWIKFEEDVEEETERWGKPHVASLSFRSLLELRRTLAHGAVLLDLDQQTLPGVAHQVVEQMVISDQIKAEDRANVLRALLLKHSHPSDEKDFSFPRNISAGSLGSLLGHHHGQGAESDPHVTEPLMGGVPETRLEVERERELPPPAPPAGITRSKSKHELKLLEKIPENAEATVVLVGCVEFLSRPTMAFVRLREAVELDAVLEVPVPVRFLFLLLGPSSANMDYHEIGRSISTLMSDKQFHEAAYLADEREDLLTAINAFLDCSVVLPPSEVQGEELLRSVAHFQRQMLKKREEQGRLLPTGAGLEPKSAQDKALLQMVEAAGAAEDDPLRRTGRPFGGLIRDVRRRYPHYLSDFRDALDPQCLAAVIFIYFAALSPAITFGGLLGEKTQDLIGVSELIMSTALQGVVFCLLGAQPLLVIGFSGPLLVFEEAFFSFCSSNHLEYLVGRVWIGFWLVFLALLMVALEGSFLVRFVSRFTQEIFAFLISLIFIYETFYKLVKIFQEHPLHGCSASNSSEVDGGENMTWAGARPTLGPGNRSLAGQSGQGKPRGQPNTALLSLVLMAGTFFIAFFLRKFKNSRFFPGRIRRVIGDFGVPIAILIMVLVDYSIEDTYTQKLSVPSGFSVTAPEKRGWVINPLGEKSPFPVWMMVASLLPAILVFILIFMETQITTLIISKKERMLQKGSGFHLDLLLIVAMGGICALFGLPWLAAATVRSVTHANALTVMSKAVAPGDKPKIQEVKEQRVTGLLVALLVGLSIVIGDLLRQIPLAVLFGIFLYMGVTSLNGIQFYERLHLLLMPPKHHPDVTYVKKVRTLRMHLFTALQLLCLALLWAVMSTAASLAFPFILILTVPLRMVVLTRIFTDREMKCLDANEAEPVFDEREGVDEYNEMPMPV

From PMC5011918
